{"source": "the supplement of paper PMC8728848", "assay_in_all_cases": "glycan array binding signal (z-score within array); higher = stronger binding", "conditions_in_all_cases": "glycan notation: IUPAC condensed, linker removed", "key": {"GalNAc(b1-4)GlcNAc": {"target": "GalNAc(b1-4)GlcNAc", "summary_of_the_method": "(§1)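 From the Consortium for Functional Glycomics database, 3228 arrays were curated, keeping only those whose protein sequence was available. Binding is given as a within-array Z-score averaged across arrays sharing a protein sequence and across linkers. Negative Z-scores can be read as non-binding.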"}, "[1]": {"target": "GalNAc(b1-4)GlcNAc(b1-2)Man", "summary_of_the_method": "as §1"}, "[2]": {"target": "GalNAc(b1-4)GlcNAc(b1-2)Man(a1-3)[GalNAc(b1-4)GlcNAc(b1-2)Man(a1-6)]Man(b1-4)GlcNAc(b1-4)GlcNAc", "summary_of_the_method": "as §1"}, "[3]": {"target": "GalNAc(b1-4)GlcNAc(b1-3)GalNAc(b1-4)GlcNAc", "summary_of_the_method": "as §1"}, "GalNAc(b1-4)GlcNAc6S": {"target": "GalNAc(b1-4)GlcNAc6S", "summary_of_the_method": "as §1"}, "GalNAc(b1-6)GalNAc": {"target": "GalNAc(b1-6)GalNAc", "summary_of_the_method": "as §1"}, "GalNAc3S(b1-4)GlcNAc": {"target": "GalNAc3S(b1-4)GlcNAc", "summary_of_the_method": "as §1"}, "GalNAc3S(b1-4)GlcNAc3S": {"target": "GalNAc3S(b1-4)GlcNAc3S", "summary_of_the_method": "as §1"}, "[4]": {"target": "GalNAc3S(b1-4)[Fuc(a1-3)]GlcNAc", "summary_of_the_method": "as §1"}, "GalNAc4S6S(b1-4)GlcNAc": {"target": "GalNAc4S6S(b1-4)GlcNAc", "summary_of_the_method": "as §1"}, "GalNAc6S(b1-4)GlcNAc": {"target": "GalNAc6S(b1-4)GlcNAc", "summary_of_the_method": "as §1"}, "Glc(a1-4)Glc": {"target": "Glc(a1-4)Glc", "summary_of_the_method": "as §1"}, "[5]": {"target": "Glc(a1-4)Glc(a1-4)Glc(a1-4)Glc", "summary_of_the_method": "as §1"}, "Glc(a1-6)Glc(a1-6)Glc": {"target": "Glc(a1-6)Glc(a1-6)Glc", "summary_of_the_method": "as §1"}, "[6]": {"target": "Glc(a1-6)Glc(a1-6)Glc(a1-6)Glc", "summary_of_the_method": "as §1"}, "Glc(b1-4)Glc": {"target": "Glc(b1-4)Glc", "summary_of_the_method": "as §1"}, "Glc(b1-6)Glc": {"target": "Glc(b1-6)Glc", "summary_of_the_method": "as §1"}, "GlcA(b1-3)Gal": {"target": "GlcA(b1-3)Gal", "summary_of_the_method": "as §1"}, "GlcA(b1-3)GlcNAc": {"target": "GlcA(b1-3)GlcNAc", "summary_of_the_method": "as §1"}, "GlcA(b1-6)Gal": {"target": "GlcA(b1-6)Gal", "summary_of_the_method": "as §1"}, "[7]": {"target": "GlcA3S(b1-3)Gal(b1-4)GlcNAc(b1-2)Man", "summary_of_the_method": "as §1"}, "[8]": {"target": "GlcA3S(b1-3)Gal(b1-4)GlcNAc(b1-3)Gal(b1-4)Glc", "summary_of_the_method": "as §1"}, "[9]": {"target": "GlcNAc(a1-3)Gal(b1-4)GlcNAc", "summary_of_the_method": "as §1"}, "[10]": {"target": "GlcNAc(a1-4)Gal(b1-3)GlcNAc", "summary_of_the_method": "as §1"}, "[11]": {"target": "GlcNAc(a1-4)Gal(b1-4)GalNAc", "summary_of_the_method": "as §1"}, "[12]": {"target": "GlcNAc(a1-4)Gal(b1-4)GlcNAc", "summary_of_the_method": "as §1"}, "[13]": {"target": "GlcNAc(a1-4)Gal(b1-4)GlcNAc(b1-3)Gal(b1-4)Glc", "summary_of_the_method": "as §1"}, "[14]": {"target": "GlcNAc(a1-4)Gal(b1-4)GlcNAc(b1-3)Gal(b1-4)GlcNAc", "summary_of_the_method": "as §1"}, "[15]": {"target": "GlcNAc(a1-4)Gal(b1-4)GlcNAc(b1-3)Gal(b1-4)GlcNAc(b1-3)Gal(b1-4)GlcNAc", "summary_of_the_method": "as §1"}, "[16]": {"target": "GlcNAc(a1-4)Gal(b1-4)GlcNAc(b1-3)Gal(b1-4)[Fuc(a1-3)]GlcNAc(b1-3)Gal(b1-4)[Fuc(a1-3)]GlcNAc", "summary_of_the_method": "as §1"}, "[17]": {"target": "GlcNAc(a1-6)Gal(b1-4)GlcNAc", "summary_of_the_method": "as §1"}, "[18]": {"target": "GlcNAc(b1-2)Gal(b1-3)GalNAc", "summary_of_the_method": "as §1"}, "[19]": {"target": "GlcNAc(b1-2)Man(a1-3)[GlcNAc(b1-2)Man(a1-6)]Man(b1-4)GlcNAc(b1-4)GlcNAc", "summary_of_the_method": "as §1"}, "[20]": {"target": "GlcNAc(b1-2)Man(a1-3)[GlcNAc(b1-2)Man(a1-6)]Man(b1-4)GlcNAc(b1-4)[Fuc(a1-6)]GlcNAc", "summary_of_the_method": "as §1"}, "[21]": {"target": "GlcNAc(b1-2)Man(a1-3)[GlcNAc(b1-4)][GlcNAc(b1-2)Man(a1-6)]Man(b1-4)GlcNAc(b1-4)GlcNAc", "summary_of_the_method": "as §1"}, "[22]": {"target": "GlcNAc(b1-2)Man(a1-3)[GlcNAc(b1-4)][GlcNAc(b1-2)Man(a1-6)]Man(b1-4)GlcNAc(b1-4)[Fuc(a1-6)]GlcNAc", "summary_of_the_method": "as §1"}, "[23]": {"target": "GlcNAc(b1-2)[GlcNAc(b1-4)]Man(a1-3)[GlcNAc(b1-2)Man(a1-6)]Man(b1-4)GlcNAc(b1-4)GlcNAc", "summary_of_the_method": "as §1"}}, "note": "This is one part of the list.", "data": [{"binder": "SP15308B-bot-339-22-339 (Bacteroides ovatus) (protein) NEWEDEQYEQYVSFKAPIASGSDGVTTIYVRYKDNGKVTYQLPIIVSGSTVNSQDRDIHIAVDKDTLKTLNIERFSLYRPELWYTEMEEDKYEFPETVHIPAGSCVELLNIDFNLQDIDMLEKWVLPLTIVDDGSYAYQSHPRKNYAKALLKVVPFNNYSGSYTASSMKVYTYINGKPDTNARTTDKRTGYVVDNNSIFFYAGLINEDMDKDMRKKYKINVHFKEDGTLDMKQDDPSNEMEFELIGTPTYSSTSVMDATRPYLERRYVQIMFEYDFQDFTYGGSGTEVIPIKYRVAGSMTLLRNINTQIPDEDQQIEW", "values": [{"measurement": "glycan array binding signal (z-score)", "setting": "GalNAc(b1-4)GlcNAc", "result": 0.63}, {"measurement": "glycan array binding signal (z-score)", "setting": "[1]", "result": 0.08}, {"measurement": "glycan array binding signal (z-score)", "setting": "[2]", "result": 1.73}, {"measurement": "glycan array binding signal (z-score)", "setting": "[3]", "result": 1.39}, {"measurement": "glycan array binding signal (z-score)", "setting": "GalNAc(b1-4)GlcNAc6S", "result": 0.196}, {"measurement": "glycan array binding signal (z-score)", "setting": "GalNAc(b1-6)GalNAc", "result": -0.071}, {"measurement": "glycan array binding signal (z-score)", "setting": "GalNAc3S(b1-4)GlcNAc", "result": -0.595}, {"measurement": "glycan array binding signal (z-score)", "setting": "GalNAc3S(b1-4)GlcNAc3S", "result": -0.334}, {"measurement": "glycan array binding signal (z-score)", "setting": "[4]", "result": -0.323}, {"measurement": "glycan array binding signal (z-score)", "setting": "GalNAc4S6S(b1-4)GlcNAc", "result": -0.182}, {"measurement": "glycan array binding signal (z-score)", "setting": "GalNAc6S(b1-4)GlcNAc", "result": -0.445}, {"measurement": "glycan array binding signal (z-score)", "setting": "Glc(a1-4)Glc", "result": 0.066}, {"measurement": "glycan array binding signal (z-score)", "setting": "[5]", "result": -0.584}, {"measurement": "glycan array binding signal (z-score)", "setting": "Glc(a1-6)Glc(a1-6)Glc", "result": -0.215}, {"measurement": "glycan array binding signal (z-score)", "setting": "[6]", "result": 0.063}, {"measurement": "glycan array binding signal (z-score)", "setting": "Glc(b1-4)Glc", "result": -0.689}, {"measurement": "glycan array binding signal (z-score)", "setting": "Glc(b1-6)Glc", "result": -0.519}, {"measurement": "glycan array binding signal (z-score)", "setting": "GlcA(b1-3)Gal", "result": 0.229}, {"measurement": "glycan array binding signal (z-score)", "setting": "GlcA(b1-3)GlcNAc", "result": 0.317}, {"measurement": "glycan array binding signal (z-score)", "setting": "GlcA(b1-6)Gal", "result": -0.251}, {"measurement": "glycan array binding signal (z-score)", "setting": "[7]", "result": -0.331}, {"measurement": "glycan array binding signal (z-score)", "setting": "[8]", "result": -0.016}, {"measurement": "glycan array binding signal (z-score)", "setting": "[9]", "result": -0.002}, {"measurement": "glycan array binding signal (z-score)", "setting": "[10]", "result": -0.062}, {"measurement": "glycan array binding signal (z-score)", "setting": "[11]", "result": -0.192}, {"measurement": "glycan array binding signal (z-score)", "setting": "[12]", "result": -0.465}, {"measurement": "glycan array binding signal (z-score)", "setting": "[13]", "result": -0.022}, {"measurement": "glycan array binding signal (z-score)", "setting": "[14]", "result": -0.492}, {"measurement": "glycan array binding signal (z-score)", "setting": "[15]", "result": -0.603}, {"measurement": "glycan array binding signal (z-score)", "setting": "[16]", "result": 1.75}, {"measurement": "glycan array binding signal (z-score)", "setting": "[17]", "result": -0.154}, {"measurement": "glycan array binding signal (z-score)", "setting": "[18]", "result": 0.496}, {"measurement": "glycan array binding signal (z-score)", "setting": "[19]", "result": -0.414}, {"measurement": "glycan array binding signal (z-score)", "setting": "[20]", "result": -0.018}, {"measurement": "glycan array binding signal (z-score)", "setting": "[21]", "result": -0.034}, {"measurement": "glycan array binding signal (z-score)", "setting": "[22]", "result": -0.537}, {"measurement": "glycan array binding signal (z-score)", "setting": "[23]", "result": -0.408}]}]}
